{"source": "patent US20050203105A1", "about": "“Composition and method for controlling alcohol-induced facial flushing in susceptible humans” (priority 2003, published 2005)", "origin": "cited, not measured here", "note": "“Also recorded” adds a separate entry of the source."}
{"smiles": "CN/C(=N/CCSCc1nc[nH]c1C)NC#N", "note": "[Cimetidine]", "values": [{"measurement": "serum / blood alcohol levels", "setting": "alcohol and H2 blocker administered", "value": "small elevations of serum alcohol levels; also recorded: higher blood ethanol levels"}, {"measurement": "ethanol concentration-time curve", "setting": "ethanol ingested on an empty stomach", "value": "does not influence the ethanol concentration-time curve"}, {"measurement": "ethanol elimination rate", "setting": "fasting men and women", "value": "unchanged"}]}
